The source of these data is article PMC4721948.

No constants are given. Whether binding was seen depends on the method and setting. Binding seen in cells or lysates may run through a third protein. For some assays here: A result given as binding can be weak or reduced; the word gives no strength.

Assay [1] deals with T1, APPL1 (adaptor protein containing pleckstrin homology domain, phosphotyrosine binding domain and leucine zipper motif), wild type (UniProt Q9UKG1).
T1 sequence: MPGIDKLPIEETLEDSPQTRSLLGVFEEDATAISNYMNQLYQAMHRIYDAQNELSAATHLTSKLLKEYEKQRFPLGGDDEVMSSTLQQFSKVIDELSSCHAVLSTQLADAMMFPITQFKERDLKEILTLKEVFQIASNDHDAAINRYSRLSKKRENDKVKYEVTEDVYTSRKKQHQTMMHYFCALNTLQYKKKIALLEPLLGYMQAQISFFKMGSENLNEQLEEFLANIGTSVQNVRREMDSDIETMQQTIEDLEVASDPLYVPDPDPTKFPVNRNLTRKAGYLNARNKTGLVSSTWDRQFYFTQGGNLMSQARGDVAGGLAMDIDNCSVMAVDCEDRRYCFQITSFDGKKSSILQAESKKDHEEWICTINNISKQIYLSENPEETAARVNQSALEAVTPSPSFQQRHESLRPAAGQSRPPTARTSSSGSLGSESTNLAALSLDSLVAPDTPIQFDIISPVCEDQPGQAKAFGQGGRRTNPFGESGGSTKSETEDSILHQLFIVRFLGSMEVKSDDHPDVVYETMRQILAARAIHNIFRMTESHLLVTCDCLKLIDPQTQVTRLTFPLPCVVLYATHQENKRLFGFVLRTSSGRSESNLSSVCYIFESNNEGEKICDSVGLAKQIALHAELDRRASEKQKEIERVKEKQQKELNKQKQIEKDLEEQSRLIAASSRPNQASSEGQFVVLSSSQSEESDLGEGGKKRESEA
In words: co-IP; lysates of transfected HEK293 cells overexpressing APP (APPwt, APPmv or APP_(AENATA)) and APPL1 (wt or ΔPTB); IP with antibodies against APPL1 or against APP (C1/6.1 or 6E10), immunoblot; 10% of total lysate as input. (In western blotting, separated proteins are transferred to a membrane and probed.)

The target in assay [2] is β-cleaved carboxy-terminal fragment of APP (βCTF) (human). The description is as above.
For assay [3], the target named is β-cleaved carboxy-terminal fragment of APP (βCTF), in N2a cells overexpressing APPwt (human). Put plainly: condition: only cells treated with MiTMAB (dynamin inhibitor, blocks endocytosis); co-IP; lysates of N2a cells overexpressing APPwt and APPL1wt, treated with MiTMAB (dynamin I and II inhibitor) to block endocytosis; IP with C1/6.1 or APPL1 antibody, immunoblot.

Assay [4] shares this target. In words: co-IP; lysates of N2a cells overexpressing APPwt and APPL1wt, treated with MiTMAB (dynamin I and II inhibitor) to block endocytosis; IP with C1/6.1 or APPL1 antibody, immunoblot.
Assay [5] shares this target. Put plainly: co-IP; lysates of N2a cells overexpressing APPwt and APPL1wt, treated with promyristic acid (inactive form of MiTMAB, negative control); IP with C1/6.1 or APPL1 antibody, immunoblot.

Take “α-cleaved carboxy-terminal fragment of APP (αCTF) (human) (domain or fragment)”: the binding result in assay [1] was “no binding”.

B1: APPL1 (adaptor protein containing pleckstrin homology domain, phosphotyrosine binding domain and leucine zipper motif), wild type (protein, UniProt Q9UKG1 1-709)
chain: T1 sequence
Turning to B1, the binding entry in assay [2] is listed as “binds”.

B2: APPL1, wild type, overexpressed in N2a cells (protein, UniProt Q9UKG1 1-709)
chain: T1 sequence
Turning to B2, the binding entry is “no binding” in assay [3], “binds” in assay [4] and “binds” in assay [5].
